These are literature values, as cited in patent US20110129540A1, “Polymer of acrylic or methacrylic type comprising alpha-tocopherol grafts” (Flamel Technologies, priority 2009, published 2011).

With `CC(=O)O[C@H]1C(=O)[C@@]2(C)[C@H]([C@H](OC(=O)c3ccccc3)[C@]3(O)C[C@H](OC(=O)[C@H](O)[C@@H](NC(=O)c4ccccc4)c4ccccc4)C(C)=C1C3(C)C)[C@]1(OC(C)=O)CO[C@@H]1C[C@@H]2O` [paclitaxel], the Water-solubility entry (background statement) is given as “less than 1 μg/ml”. In addition, the “Solubility of the paclitaxel in water” value (in water, no polymer) is on record as “less than 0.25 μg/mL”.
